Data as given in article doi:10.1101/2024.07.02.601518.
Results are given in words; binding and its absence hold for the method and conditions named. In cells and extracts the contact can be indirect. Some binding calls cover weakened binding; strength is not graded here.

By UniProt entry, the sequences of proteins in these tests, tags left out.
UniProt Q16665: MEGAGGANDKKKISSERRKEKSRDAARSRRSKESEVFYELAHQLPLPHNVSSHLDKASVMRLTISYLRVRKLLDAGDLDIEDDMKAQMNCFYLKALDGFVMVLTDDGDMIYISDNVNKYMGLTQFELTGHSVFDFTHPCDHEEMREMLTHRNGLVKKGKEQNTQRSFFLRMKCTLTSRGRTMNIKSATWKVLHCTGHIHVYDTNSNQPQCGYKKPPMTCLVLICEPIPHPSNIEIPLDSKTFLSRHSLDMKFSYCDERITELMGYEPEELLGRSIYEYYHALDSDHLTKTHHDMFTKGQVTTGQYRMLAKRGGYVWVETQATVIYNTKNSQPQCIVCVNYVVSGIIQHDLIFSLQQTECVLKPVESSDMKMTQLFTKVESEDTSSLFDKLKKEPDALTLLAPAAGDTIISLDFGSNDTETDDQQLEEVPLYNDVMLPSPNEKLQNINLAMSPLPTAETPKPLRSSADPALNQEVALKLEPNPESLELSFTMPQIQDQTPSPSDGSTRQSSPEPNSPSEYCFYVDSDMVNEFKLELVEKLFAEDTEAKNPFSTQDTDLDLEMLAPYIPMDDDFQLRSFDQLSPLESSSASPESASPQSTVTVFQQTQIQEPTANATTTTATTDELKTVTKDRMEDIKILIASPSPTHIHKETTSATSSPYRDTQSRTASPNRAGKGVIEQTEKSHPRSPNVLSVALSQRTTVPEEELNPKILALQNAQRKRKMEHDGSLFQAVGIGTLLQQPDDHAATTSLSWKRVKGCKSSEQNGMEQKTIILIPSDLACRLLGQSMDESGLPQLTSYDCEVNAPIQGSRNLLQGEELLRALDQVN

Target: Hypoxia-inducible factor 1-alpha (HIF-1α), human (human (endogenous in UT7/TPO)) (UniProt Q16665)
Assay: co-IP

binding: binds
B1: GOLGA3, human (protein, UniProt Q08378 1-1498)
chain: MDGASAEQDGLQEDRSHSGPSSLPEAPLKPPGPLVPPDQQDKVQCAEVNRASTEGESPDGPGQGGLCQNGPTPPFPDPPSSLDPTTSPVGPDASPGVAGFHDNLRKSQGTSAEGSVRKEALQSLRLSLPMQETQLCSTDSPLPLEKEEQVRLQARKWLEEQLKQYRVKRQQERSSQPATKTRLFSTLDPELMLNPENLPRASTLAMTKEYSFLRTSVPRGPKVGSLGLPAHPREKKTSKSSKIRSLADYRTEDSNAGNSGGNVPAPDSTKGSLKQNRSSAASVVSEISLSPDTDDRLENTSLAGDSVSEVDGNDSDSSSYSSASTRGTYGILSKTVGTQDTPYMVNGQEIPADTLGQFPSIKDVLQAAAAEHQDQGQEVNGEVRSRRDSICSSVSLESSAAETQEEMLQVLKEKMRLEGQLEALSLEASQALKEKAELQAQLAALSTKLQAQVECSHSSQQRQDSLSSEVDTLKQSCWDLERAMTDLQNMLEAKNASLASSNNDLQVAEEQYQRLMAKVEDMQRSMLSKDNTVHDLRQQMTALQSQLQQVQLERTTLTSKLKASQAEISSLQSVRQWYQQQLALAQEARVRLQGEMAHIQVGQMTQAGLLEHLKLENVSLSQQLTETQHRSMKEKGRIAAQLQGIEADMLDQEAAFMQIQEAKTMVEEDLQRRLEEFEGERERLQRMADSAASLEQQLEQVKLTLLQRDQQLEALQQEHLDLMKQLTLTQEALQSREQSLDALQTHYDELQARLGELQGEAASREDTICLLQNEKIILEAALQAAKSGKEELDRGARRLEEGTEETSETLEKLREELAIKSGQVEHLQQETAALKKQMQKIKEQFLQQKVMVEAYRRDATSKDQLISELKATRKRLDSELKELRQELMQVHGEKRTAEAELSRLHREVAQVRQHMADLEGHLQSAQKERDEMETHLQSLQFDKEQMVAVTEANEALKKQIEELQQEARKAITEQKQKMRRLGSDLTSAQKEMKTKHKAYENAVGILSRRLQEALAAKEAADAELGQLRAQGGSSDSSLALHERIQALEAELQAVSHSKTLLEKELQEVIALTSQELEESREKVLELEDELQESRGFRKKIKRLEESNKKLALELEHEKGKLTGLGQSNAALREHNSILETALAKREADLVQLNLQVQAVLQRKEEEDRQMKHLVQALQASLEKEKEKVNSLKEQVAAAKVEAGHNRRHFKAASLELSEVKKELQAKEHLVQKLQAEADDLQIREGKHSQEIAQFQAELAEARAQLQLLQKQLDEQLSKQPVGNQEMENLKWEVDQKEREIQSLKQQLDLTEQQGRKELEGLQQLLQNVKSELEMAQEDLSMTQKDKFMLQAKVSELKNNMKTLLQQNQQLKLDLRRGAAKTRKEPKGEASSSNPATPIKIPDCPVPASLLEELLRPPPAVSKEPLKNLNSCLQQLKQEMDSLQRQMEEHALTVHESLSSWTPLEPATASPVPPGGHAGPRGDPQRHSQSRASKEGPGE
